As usually defined, the IC50 is the concentration that gives 50% inhibition.

Structures are written as SMILES. Read-outs that look alike come from different tables or passages of the source.

Experimental findings from patent publication EP4551202B1, “NAPHTHAZARIN DERIVATIVES FOR TREATMENT OF ONYCHOMYCOSIS” (Christian-Albrechts-Universität zu Kiel, priority 2022, dated 2024) are described below.

For assay [1], the system named is Trichophyton rubrum I/95 (patient isolate). In words: Anti-mycotic activity assay in pathogen suspension (optical density at 600 nm). The following applies: light or radiation study; antimycotic activity against Trichophyton rubrum; with irradiation, peak wavelength 519 nm; read-out: Tru IC50 with irradiation. The format is cell-based. The method, then: For determining the IC50 of the anti-mycotic activity of compounds, the human pathogen Candida albicans, strain DSM 1386, or clinical isolates of Trichophyton rubrum obtained from patient samples were used.
Trichophyton rubrum I/95 (patient isolate) was cultivated for 1 week on GPY (0.1% glucose, 0.05% petone, 0.01 yeast extract, 1.5% agar) at 28°C. A suspension of 5x10^4 spores/ml in M186 (1% glucose, 0.5% peptone from soybeans, 0.3% yeast extract, 0.3% malt extract) was prepared and added to each well of a microplate containing one of the pharmaceutical compounds, which were pipetted in triplicates for a final concentration of […] and 100 µM. The wells were irradiated using the custom-made light source with a peak wavelength of 519 nm. Handling of the test compounds and well plates took place in a darkened room equipped with a red-light LED to protect them from green light. After incubation for 72 h at 28 °C and 120 rpm the optical density at 600 nm was measured using the microplate reader Tecan Infinite M200.

Assay [2] has the same test system. The description is as above. The format is cell-based. The following applies: light or radiation study; antimycotic activity against Trichophyton rubrum; without irradiation (dark); read-out: Tru IC50 without irradiation.

As to `Clc1ccccc1C(c1ccccc1)(c1ccccc1)n1ccnc1` [Clotrimazol, reference compound], the IC50 turned out to be 0.109 ± 0.051 µM in assay [1] and 0.114 ± 0.061 µM in assay [2].
